The results are deposited in PubChem (AID1645839; NCATS, 2021).

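Human HEK293 Flp-In cells expressing EGFP-tagged delE TorsinA, imaged after 48 h for the share of cells with punctate (mislocalized) TorsinA. Each compound was tested as a titration series, and the potency was fitted from that series. The value is the fitted concentration for inhibiting the mislocalization phenotype; a lower value means higher potency. Calls follow curve class: class 4 is inactive, active curve classes score 40-100, and other curves are filed inconclusive with low scores.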

Values are in nM. Every entry below has the call inconclusive. These entries are mostly ones the record files as inconclusive; other results of the assay are not listed here. Potencies fitted to partial, single-point or poorly fitting curves are rough. Activity scores are not listed here.

{"compound": "CCN(CC)C(=S)SSC(=S)N(CC)CC", "fitted potency (nM)": "35481", "curve as filed": "inhibitor, single point"}
{"compound": "CSc1ccc2c(c1)C(N1CCN(C)CC1)Cc1ccccc1S2", "stereo": "configuration not stated", "fitted potency (nM)": "10000", "curve as filed": "inhibitor, partial curve, poor fit"}
{"compound": "CN(C)[C@@H](CCOc1cccc2ccccc12)c1ccccc1", "fitted potency (nM)": "12589", "curve as filed": "inhibitor, partial curve, poor fit"}
{"compound": "O=C1OC(c2ccc(O)cc2)(c2ccc(O)cc2)c2ccccc21", "fitted potency (nM)": "11220", "curve as filed": "inhibitor, partial curve, poor fit"}
{"compound": "CCCCc1cc2ccccc2c(OCCN(C)C)n1", "fitted potency (nM)": "35481", "curve as filed": "inhibitor, single point"}
{"compound": "CCCCCCCCOc1ccccc1C(=O)Nc1ccc(C(=O)OCC[N+](C)(CC)CC)cc1", "fitted potency (nM)": "35481", "curve as filed": "inhibitor, single point"}
{"compound": "O=c1c(O)c(-c2ccc(O)c(O)c2)oc2cc(O)cc(O)c12", "fitted potency (nM)": "3981", "curve as filed": "inhibitor, full curve, poor fit"}